One assay concerns the target T1, HA-RNF138 (human) (UniProt Q8WVD3).
T1 sequence: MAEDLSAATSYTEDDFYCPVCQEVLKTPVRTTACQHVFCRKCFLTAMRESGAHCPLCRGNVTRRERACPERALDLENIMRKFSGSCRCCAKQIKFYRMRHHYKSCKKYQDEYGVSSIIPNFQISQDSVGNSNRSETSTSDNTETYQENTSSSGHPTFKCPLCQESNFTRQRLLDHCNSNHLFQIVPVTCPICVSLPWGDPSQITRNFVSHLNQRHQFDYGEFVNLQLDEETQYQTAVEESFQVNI
As to the kind of experiment: co-IP; HA-RNF138 and myc-RAD51D co-expressed in HEK293T; lysis in NETN buffer (0.5% NP40, 50 mM Tris-HCl pH 8.0, 100 mM NaCl, 2 mM EDTA); co-immunoprecipitation and reciprocal co-immunoprecipitation, western blot. On the technique in general: A western blot detects proteins with antibodies after separation by electrophoresis.

In another assay the target is T2, myc-RAD51D (human) (UniProt O75771).
T2 sequence: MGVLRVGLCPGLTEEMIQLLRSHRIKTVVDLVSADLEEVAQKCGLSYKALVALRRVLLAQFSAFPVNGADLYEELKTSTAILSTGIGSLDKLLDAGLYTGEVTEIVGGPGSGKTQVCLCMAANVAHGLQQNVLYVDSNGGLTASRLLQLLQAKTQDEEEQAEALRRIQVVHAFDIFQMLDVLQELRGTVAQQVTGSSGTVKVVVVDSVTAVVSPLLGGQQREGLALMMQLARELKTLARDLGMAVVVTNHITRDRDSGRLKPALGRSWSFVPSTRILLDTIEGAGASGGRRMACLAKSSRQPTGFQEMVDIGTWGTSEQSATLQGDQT
Described as above.

These are yes or no findings as the source states them, for the method shown. Binding seen in cells or lysates may run through a third protein. Some entries that bind do so weakly or less than the wild type. Sequences can lack the tags named with a protein.

B1: myc-RAD51D (protein, UniProt O75771 1-328)
chain: MGVLRVGLCPGLTEEMIQLLRSHRIKTVVDLVSADLEEVAQKCGLSYKALVALRRVLLAQFSAFPVNGADLYEELKTSTAILSTGIGSLDKLLDAGLYTGEVTEIVGGPGSGKTQVCLCMAANVAHGLQQNVLYVDSNGGLTASRLLQLLQAKTQDEEEQAEALRRIQVVHAFDIFQMLDVLQELRGTVAQQVTGSSGTVKVVVVDSVTAVVSPLLGGQQREGLALMMQLARELKTLARDLGMAVVVTNHITRDRDSGRLKPALGRSWSFVPSTRILLDTIEGAGASGGRRMACLAKSSRQPTGFQEMVDIGTWGTSEQSATLQGDQT
For the molecule B1, the binding entry in the assay with HA-RNF138 (human) is reported as “binds”.

B2: HA-RNF138 (enzyme, UniProt Q8WVD3 1-245)
chain: MAEDLSAATSYTEDDFYCPVCQEVLKTPVRTTACQHVFCRKCFLTAMRESGAHCPLCRGNVTRRERACPERALDLENIMRKFSGSCRCCAKQIKFYRMRHHYKSCKKYQDEYGVSSIIPNFQISQDSVGNSNRSETSTSDNTETYQENTSSSGHPTFKCPLCQESNFTRQRLLDHCNSNHLFQIVPVTCPICVSLPWGDPSQITRNFVSHLNQRHQFDYGEFVNLQLDEETQYQTAVEESFQVNI
With B2, the binding result in the assay with myc-RAD51D (human) is listed as “binds”.
